Results are given in words; binding and its absence hold for the method and conditions named. In cells and extracts the contact can be indirect. Some binding calls cover weakened binding; strength is not graded here.

Sequences of proteins named here, by UniProt entry; tags and fusion partners are left off. A change or cut given only in a name is not applied to a line headed by its entry.
UniProt P35637: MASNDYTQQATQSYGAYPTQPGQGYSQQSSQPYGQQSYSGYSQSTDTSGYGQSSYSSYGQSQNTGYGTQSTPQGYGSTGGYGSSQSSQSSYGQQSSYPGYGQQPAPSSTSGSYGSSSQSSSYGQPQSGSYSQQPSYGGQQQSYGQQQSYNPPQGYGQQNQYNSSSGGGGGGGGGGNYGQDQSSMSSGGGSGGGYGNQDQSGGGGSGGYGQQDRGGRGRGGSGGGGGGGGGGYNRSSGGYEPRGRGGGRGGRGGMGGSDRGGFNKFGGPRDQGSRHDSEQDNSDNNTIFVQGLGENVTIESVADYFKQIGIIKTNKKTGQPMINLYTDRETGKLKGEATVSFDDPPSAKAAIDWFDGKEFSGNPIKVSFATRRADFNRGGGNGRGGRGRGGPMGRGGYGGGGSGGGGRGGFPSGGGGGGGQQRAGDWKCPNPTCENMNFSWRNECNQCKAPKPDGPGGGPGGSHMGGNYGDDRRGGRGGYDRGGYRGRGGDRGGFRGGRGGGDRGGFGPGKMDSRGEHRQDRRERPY
UniProt Q13148: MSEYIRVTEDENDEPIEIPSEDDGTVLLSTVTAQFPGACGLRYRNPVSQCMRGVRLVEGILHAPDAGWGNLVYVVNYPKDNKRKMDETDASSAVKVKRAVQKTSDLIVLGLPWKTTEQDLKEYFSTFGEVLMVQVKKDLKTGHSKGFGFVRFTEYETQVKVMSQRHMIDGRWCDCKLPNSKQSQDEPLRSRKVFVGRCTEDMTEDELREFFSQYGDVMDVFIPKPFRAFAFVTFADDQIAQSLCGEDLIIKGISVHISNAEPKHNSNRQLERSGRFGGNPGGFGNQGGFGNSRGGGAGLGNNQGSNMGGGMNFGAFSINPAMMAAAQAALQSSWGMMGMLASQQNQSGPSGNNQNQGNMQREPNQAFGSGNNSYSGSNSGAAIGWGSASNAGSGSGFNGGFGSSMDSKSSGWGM
UniProt Q01844: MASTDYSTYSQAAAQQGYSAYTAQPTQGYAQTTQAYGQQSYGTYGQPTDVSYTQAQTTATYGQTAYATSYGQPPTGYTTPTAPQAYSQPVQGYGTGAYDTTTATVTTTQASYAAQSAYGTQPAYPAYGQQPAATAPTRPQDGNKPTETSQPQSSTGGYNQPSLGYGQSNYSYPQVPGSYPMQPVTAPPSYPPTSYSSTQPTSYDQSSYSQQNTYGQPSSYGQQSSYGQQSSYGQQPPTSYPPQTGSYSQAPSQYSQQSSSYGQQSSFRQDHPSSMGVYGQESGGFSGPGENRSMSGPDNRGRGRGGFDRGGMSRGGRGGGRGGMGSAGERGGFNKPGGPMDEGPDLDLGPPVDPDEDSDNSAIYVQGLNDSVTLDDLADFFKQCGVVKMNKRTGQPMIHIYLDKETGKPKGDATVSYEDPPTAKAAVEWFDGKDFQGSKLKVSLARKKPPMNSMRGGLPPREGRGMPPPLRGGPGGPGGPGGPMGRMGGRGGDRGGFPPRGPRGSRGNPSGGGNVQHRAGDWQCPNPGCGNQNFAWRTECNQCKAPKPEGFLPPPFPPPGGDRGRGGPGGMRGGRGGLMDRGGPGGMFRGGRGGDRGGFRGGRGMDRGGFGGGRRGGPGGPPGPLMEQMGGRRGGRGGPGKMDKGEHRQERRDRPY

From paper PMC6570784 come the findings set out here.

Common to all, as to assay: co-IP; GFP-Trap immunoprecipitation of FUS-eGFP from LL and SL iPSC-derived neurons, Western blot of the interactors
The target of assay [1] is LL WT FUS-eGFP (human (endogenous in iPSC-derived neurons)) (UniProt P35637).
For assay [2], the target named is LL P525L FUS-eGFP (human (endogenous in iPSC-derived neurons)) (UniProt P35637).
The target in assay [3] is SL WT FUS-eGFP (human (endogenous in iPSC-derived neurons)) (UniProt P35637).
Assay [4] has as its target SL P525L FUS-eGFP (human (endogenous in iPSC-derived neurons)) (UniProt P35637).

Consider “TAR DNA-binding protein 43 (from UniProt Q13148 1-414)”, for which the binding result in assay [1] and in assay [2] was “binds” in each case.

With “Ewing sarcoma breakpoint region 1 (from UniProt Q01844 1-656)”, the binding result in assay [3], in assay [1], in assay [2] and in assay [4] was “binds” in each case.

B1: Matrin3 (protein, UniProt P43243 1-847)
chain: MSKSFQQSSLSRDSQGHGRDLSAAGIGLLAAATQSLSMPASLGRMNQGTARLASLMNLGMSSSLNQQGAHSALSSASTSSHNLQSIFNIGSRGPLPLSSQHRGDADQASNILASFGLSARDLDELSRYPEDKITPENLPQILLQLKRRRTEEGPTLSYGRDGRSATREPPYRVPRDDWEEKRHFRRDSFDDRGPSLNPVLDYDHGSRSQESGYYDRMDYEDDRLRDGERCRDDSFFGETSHNYHKFDSEYERMGRGPGPLQERSLFEKKRGAPPSSNIEDFHGLLPKGYPHLCSICDLPVHSNKEWSQHINGASHSRRCQLLLEIYPEWNPDNDTGHTMGDPFMLQQSTNPAPGILGPPPPSFHLGGPAVGPRGNLGAGNGNLQGPRHMQKGRVETSRVVHIMDFQRGKNLRYQLLQLVEPFGVISNHLILNKINEAFIEMATTEDAQAAVDYYTTTPALVFGKPVRVHLSQKYKRIKKPEGKPDQKFDQKQELGRVIHLSNLPHSGYSDSAVLKLAEPYGKIKNYILMRMKSQAFIEMETREDAMAMVDHCLKKALWFQGRCVKVDLSEKYKKLVLRIPNRGIDLLKKDKSRKRSYSPDGKESPSDKKSKTDGSQKTESSTEGKEQEEKSGEDGEKDTKDDQTEQEPNMLLESEDELLVDEEEAAALLESGSSVGDETDLANLGDVASDGKKEPSDKAVKKDGSASAAAKKKLKKVDKIEELDQENEAALENGIKNEENTEPGAESSENADDPNKDTSENADGQSDENKDDYTIPDEYRIGPYQPNVPVGIDYVIPKTGFYCKLCSLFYTNEEVAKNTHCSSLPHYQKLKKFLNKLAEERRQKKET
Consider B1, for which the binding entry in assay [1] and in assay [2] was “binds” in each case.
